Values of other authors as cited in patent US20080161607A1, “Processes for preparation of polymorphic form II of sertraline hydrochloride” (Teva Pharmaceuticals USA, Inc., priority 2002, published 2008).

Details: disclosed in U.S. Pat. No. 5,248,699; cited from earlier work

Compound: CN[C@H]1CC[C@@H](c2ccc(Cl)c(Cl)c2)c2ccccc21.Cl [Form II, (1S-cis)-4-(3,4 dichlorophenyl)-1,2,3,4-tetrahydro-N-methyl-1-naphthalenamine hydrochloride]
- thermodynamic stability of crystalline form: metastable
